# Screening data, single-dose tests

Protein sequences, listed by entry. Tags and fused reporters are not part of them. Residues count along the entry.
UniProt Q4DA54, 1-478: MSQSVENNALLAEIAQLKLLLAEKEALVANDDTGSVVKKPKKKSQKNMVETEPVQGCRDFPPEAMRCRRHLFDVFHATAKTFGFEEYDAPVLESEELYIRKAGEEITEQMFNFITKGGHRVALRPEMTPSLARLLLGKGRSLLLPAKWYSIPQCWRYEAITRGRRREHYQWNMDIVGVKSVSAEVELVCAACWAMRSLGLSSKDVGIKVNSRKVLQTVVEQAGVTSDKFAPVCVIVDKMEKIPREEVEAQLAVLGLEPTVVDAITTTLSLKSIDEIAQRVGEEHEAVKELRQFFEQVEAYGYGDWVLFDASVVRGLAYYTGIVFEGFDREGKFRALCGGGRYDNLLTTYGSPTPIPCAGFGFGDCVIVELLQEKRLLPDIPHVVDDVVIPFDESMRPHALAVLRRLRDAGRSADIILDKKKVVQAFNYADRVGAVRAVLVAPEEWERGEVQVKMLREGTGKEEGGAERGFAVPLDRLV
UniProt P9WFT3, whole entry: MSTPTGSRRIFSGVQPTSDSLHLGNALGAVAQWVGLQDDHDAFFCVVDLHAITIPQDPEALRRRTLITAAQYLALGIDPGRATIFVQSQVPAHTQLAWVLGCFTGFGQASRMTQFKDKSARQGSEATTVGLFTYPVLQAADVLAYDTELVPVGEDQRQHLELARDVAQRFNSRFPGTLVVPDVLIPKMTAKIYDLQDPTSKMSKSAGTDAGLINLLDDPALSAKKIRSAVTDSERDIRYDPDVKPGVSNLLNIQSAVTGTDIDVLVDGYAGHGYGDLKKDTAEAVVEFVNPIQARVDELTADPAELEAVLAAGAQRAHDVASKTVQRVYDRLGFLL
UniProt I6X8D2, whole entry: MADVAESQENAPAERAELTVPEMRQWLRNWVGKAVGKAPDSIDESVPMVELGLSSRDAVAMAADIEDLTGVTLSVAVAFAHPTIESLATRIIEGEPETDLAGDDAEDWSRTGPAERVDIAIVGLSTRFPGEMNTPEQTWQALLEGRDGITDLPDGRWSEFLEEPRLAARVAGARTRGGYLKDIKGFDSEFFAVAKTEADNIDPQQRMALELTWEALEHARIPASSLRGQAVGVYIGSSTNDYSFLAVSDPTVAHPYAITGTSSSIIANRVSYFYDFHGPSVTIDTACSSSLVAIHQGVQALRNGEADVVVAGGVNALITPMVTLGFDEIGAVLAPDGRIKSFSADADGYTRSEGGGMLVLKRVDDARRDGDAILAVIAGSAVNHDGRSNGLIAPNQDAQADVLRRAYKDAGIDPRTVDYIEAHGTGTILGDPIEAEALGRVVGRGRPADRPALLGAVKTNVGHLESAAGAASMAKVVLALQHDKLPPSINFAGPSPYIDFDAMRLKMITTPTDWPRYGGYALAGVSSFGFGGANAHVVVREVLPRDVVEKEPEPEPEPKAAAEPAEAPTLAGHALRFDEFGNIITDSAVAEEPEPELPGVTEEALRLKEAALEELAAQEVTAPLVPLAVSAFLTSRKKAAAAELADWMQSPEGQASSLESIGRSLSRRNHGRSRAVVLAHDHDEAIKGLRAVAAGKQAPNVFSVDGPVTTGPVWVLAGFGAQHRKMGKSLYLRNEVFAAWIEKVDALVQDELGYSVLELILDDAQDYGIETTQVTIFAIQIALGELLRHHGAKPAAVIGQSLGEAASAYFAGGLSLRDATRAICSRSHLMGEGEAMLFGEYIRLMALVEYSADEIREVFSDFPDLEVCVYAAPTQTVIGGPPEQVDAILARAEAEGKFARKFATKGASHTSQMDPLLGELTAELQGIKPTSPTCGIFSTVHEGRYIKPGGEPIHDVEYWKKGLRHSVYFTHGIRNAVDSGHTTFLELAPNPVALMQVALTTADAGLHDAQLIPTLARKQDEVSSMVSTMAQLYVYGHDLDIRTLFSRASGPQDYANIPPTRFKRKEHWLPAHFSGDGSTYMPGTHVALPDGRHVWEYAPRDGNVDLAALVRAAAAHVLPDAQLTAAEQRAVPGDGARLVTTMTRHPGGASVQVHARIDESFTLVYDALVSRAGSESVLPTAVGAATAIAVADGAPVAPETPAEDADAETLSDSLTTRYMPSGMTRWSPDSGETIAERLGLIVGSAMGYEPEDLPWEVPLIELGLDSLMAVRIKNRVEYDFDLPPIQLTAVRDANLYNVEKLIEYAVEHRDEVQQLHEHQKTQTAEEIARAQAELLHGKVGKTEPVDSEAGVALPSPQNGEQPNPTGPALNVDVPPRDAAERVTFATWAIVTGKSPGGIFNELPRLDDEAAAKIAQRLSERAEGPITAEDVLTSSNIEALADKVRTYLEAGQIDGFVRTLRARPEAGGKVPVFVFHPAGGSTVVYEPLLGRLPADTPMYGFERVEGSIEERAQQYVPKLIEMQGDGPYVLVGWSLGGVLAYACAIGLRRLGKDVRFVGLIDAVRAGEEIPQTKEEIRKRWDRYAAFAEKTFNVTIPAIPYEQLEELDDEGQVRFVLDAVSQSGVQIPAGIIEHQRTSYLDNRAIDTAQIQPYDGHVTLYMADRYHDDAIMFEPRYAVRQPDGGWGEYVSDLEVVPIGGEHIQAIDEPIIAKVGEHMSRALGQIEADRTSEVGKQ
UniProt Q8IDJ8, 1-583: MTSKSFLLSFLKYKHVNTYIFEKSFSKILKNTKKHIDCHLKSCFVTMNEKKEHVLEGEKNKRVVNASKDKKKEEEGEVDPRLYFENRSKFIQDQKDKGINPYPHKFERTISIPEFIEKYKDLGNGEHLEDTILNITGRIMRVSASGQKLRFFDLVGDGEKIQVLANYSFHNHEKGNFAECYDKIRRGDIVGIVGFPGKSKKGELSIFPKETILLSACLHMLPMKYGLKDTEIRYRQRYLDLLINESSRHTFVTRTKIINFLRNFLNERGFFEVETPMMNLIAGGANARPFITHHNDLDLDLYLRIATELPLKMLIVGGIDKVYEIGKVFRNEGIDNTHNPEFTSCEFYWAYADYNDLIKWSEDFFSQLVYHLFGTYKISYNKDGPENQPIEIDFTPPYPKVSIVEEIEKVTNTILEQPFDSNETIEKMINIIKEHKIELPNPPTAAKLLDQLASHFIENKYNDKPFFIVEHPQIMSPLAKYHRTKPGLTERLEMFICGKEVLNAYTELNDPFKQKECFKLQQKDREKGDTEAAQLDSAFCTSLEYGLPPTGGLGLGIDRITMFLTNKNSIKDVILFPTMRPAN

The filed quantity is “Percent Effect” (%).
How 0% and 100% were set is not recorded. Most values in the screen are low, and negative values occur.
Compounds were drawn at random from those tested, without regard to their results.
A dash means the value is not listed here; it may have been measured.

TcHisRS: 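Enzyme assay of histidyl-tRNA synthetase; the read-out is not stated. Target: Histidine-tRNA ligase, Trypanosoma cruzi CL Brener (UniProt Q4DA54). Compounds at 30 µM. The record gives no direction; compounds that gave an IC50 in retests scored well above the rest, so higher reads as stronger inhibition. Size under these conditions: about 69,000 compounds, about 31 of them at 50% or above in at least one test.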
MtTrpRS: 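Tryptophan-tRNA ligase, Mycobacterium tuberculosis (UniProt P9WFT3). Enzyme assay of tryptophanyl-tRNA synthetase; the read-out is not stated. Tested at 10 µM. Direction is not recorded; retested compounds ran higher, which suggests that high means inhibition. Of about 65,000 compounds tested this way, about 64 (0.098%) reached 50% or more in at least one test.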
Pks13 thioesterase: 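Polyketide synthase Pks13, Mycobacterium tuberculosis (UniProt I6X8D2). Enzyme assay of the thioesterase domain of polyketide synthase 13; the read-out is not stated. Concentration: 30 µM. Higher reads as stronger inhibition (inferred from which compounds were picked for retests). Of about 67,000 compounds tested this way, about 300 (0.46%) reached 50% or more in at least one test.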
PfKRS1: 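Enzyme assay of the cytosolic lysyl-tRNA synthetase in 384-well plates, read by luminescence. Target: Lysine-tRNA ligase, Plasmodium falciparum 3D7 (UniProt Q8IDJ8). Concentration: 30 µM. Higher reads as stronger inhibition, judged from the few compounds that gave an IC50. Size under these conditions: about 69,000 compounds, about 49 of them at 50% or above in at least one test.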
Toxoplasma: 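Assay of Toxoplasma gondii numbers, read through their beta-galactosidase reporter with a colour substrate. Compounds at 10 µM. The record gives no direction; the compounds picked for IC50 retests had high values, so higher reads as fewer parasites. About 67,000 compounds were tested under these conditions; 0.38% (about 260) showed 50% or more at least once.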

| # | Compound | TcHisRS | MtTrpRS | Pks13 thioesterase | PfKRS1 | Toxoplasma |
|---|---|---|---|---|---|---|
| 1 | `Cc1csc(CCNC(=O)N2CCC(NC(=O)OC(C)(C)C)CC2)n1` | 3.867% | -4.806% | -48.62% | 1.454% | 4.246% |
| 2 | `Cc1ccccc1N1CCN(c2nc(N(C)C)nc3c2CCNC3)CC1` | 8.511% | 21.12% | - | 3.252% | 6.866% |
| 3 | `Cn1cc2ncn(CCNc3cccnc3)c(=O)c2n1` | 5.063% | 0.3425% | -2.985% | 1.615% | -5.11% |
| 4 | `CC(=O)N(CCc1nc(-c2cc(C(N)=O)oc2C)cs1)C(C)C` | -3.571% | -3.457% | -7.386% | 1.182% | -1.323% |
| 5 | `Cc1ccccc1CCCN1CCS(=O)(=O)CC1C` (centres undefined) | 1.042% | -3.288% | -5.648% | -1.516% | -3.198% |
| 6 | `c1cnc(N2CC3(CCN(C4CCOC4)CC3)c3ccccc32)nc1` (centres undefined) | 6.135% | 3.004% | -26.66% | 4.196% | -1.33% |
| 7 | `Cc1nc(CNCc2ccc(N3CCN(C)CC3)nc2)cs1` | 5.063% | -3.425% | -17.63% | 0.6889% | 7.439% |
| 8 | `CN(C)C(=O)N1C[C@@H]2CC[C@H](C1)N(Cc1ccc3nsnc3c1)C2` | 3.252% | -5.498% | -5.853% | 3.107% | - |
| 9 | `Cc1nc(N2CCCC2)nc(N2CCC(O)(C(=O)O)CC2)c1C` | -3.59% | 4.459% | -13.23% | 0.1679% | 23.45% |
| 10 | `O=C(NCc1nnc2n1CCC2)N1CCc2sccc2C1` | 7.692% | 6.303% | -8.804% | -0.1876% | -7.312% |
| 11 | `CN1CCOCC2(CCCN(C(=O)c3cn(C)cn3)C2)C1` (centres undefined) | 5.882% | -0.4882% | -34.03% | 13.27% | - |
| 12 | `Cc1nc(Cn2nc(C3CCNCC3)n(Cc3ccccc3)c2=O)no1` | 0% | -2.709% | -12.33% | -1.133% | -9.694% |
| 13 | `O=C(O)C(F)(F)F.O=C(O)C(F)(F)F.[H][C@@]12OCCC[C@]1([H])N(Cc1cc(C)c(C)o1)C[C@@H]2N1CCOCC1` | - | - | - | - | 14.08% |
| 14 | `O=C1N[C@H]2OCCC[C@H]2[C@H](c2ccccc2)N1` | 4.95% | 0.8639% | -3.082% | 0.8516% | - |
| 15 | `CC(=O)N1CCCN(C(=O)CN(C)c2ccc(Cl)cn2)CC1` | 1.026% | 18.76% | 2.745% | -2.476% | -2.481% |
| 16 | `COc1cc(CNC(C)Cn2cccn2)cc(OC)c1OC.Cl` (centres undefined) | - | - | - | - | -6.776% |
| 17 | `COc1ccccc1C1(CNc2ccc(C(=O)N(C)C)cn2)CC1` | 3.947% | 3.509% | -18.82% | 1.019% | 2.968% |
| 18 | `CNc1ncc(CN2CCCC2c2[nH]ncc2C(=O)N(C)C)cn1` (centres undefined) | 6.154% | -5.503% | 10.47% | 3.487% | - |
| 19 | `O=C(NC[C@H]1Cn2c(-c3ccccc3)cnc2CO1)C1CCOCC1` | 2.174% | -0.9863% | -12.31% | 0.8827% | 0.5932% |
| 20 | `Cc1cc(C)cc(OCC(=O)N2CCCN(CC(N)=O)CC2)c1` | 3.659% | -6.39% | 9.1% | -0.4119% | -14.07% |
| 21 | `Cl.c1cc(OCc2ccc3c(c2)OCCO3)ccc1CNC1CC1` | - | - | - | - | 0.9553% |
| 22 | `O=C(O)C(F)(F)F.O=C(O)C(F)(F)F.c1cncc(OCC2CC3(CCN(CC4CC4)CC3)CO2)c1` (centres undefined) | - | - | - | - | -0.08399% |
| 23 | `Cc1cccc(C)c1NC(=O)CN(C)C(C)c1nc(C(C)(C)C)no1` (centres undefined) | 11.66% | -0.6427% | -3.415% | 3.018% | 10.61% |
| 24 | `CN(Cc1ccsc1)C(=O)CN1CCc2c(ncn2C)C1` | 13.73% | 0.7333% | -24.49% | -1.308% | -3.725% |
| 25 | `CC(C)C1CN(C(=O)c2cc(=O)[nH]c(=O)[nH]2)CCCN1CC1CC1` (centres undefined) | 3.093% | 1.786% | -20.14% | 16.84% | 0.3604% |
| 26 | `[H][C@]12CC[C@]([H])(C1)[C@H](Nc1cc(CC)nc3ccnn13)C2` | - | - | - | - | 9.168% |
| 27 | `CN(C(=O)c1cc(Cl)c[nH]1)C1CCN(c2ccccn2)CC1` | -1.887% | 0.2346% | -2.718% | 4.846% | 3.839% |
| 28 | `COc1ncccc1C(=O)N(C)Cc1nc(-c2ccccn2)no1` | -2.186% | -8.038% | - | 4.24% | 1.577% |
| 29 | `O=C(C1CC1)N1CC[C@H]2C(=O)N(c3ccsc3)CCO[C@H]2C1` | -1.149% | -3.843% | -24.6% | -4.766% | - |
| 30 | `Cc1ccc(C(=O)NCCNc2ncccc2C#N)c(=O)[nH]1` | 1.901% | -1.394% | -8.928% | -5.99% | 5.339% |
| 31 | `COc1ccc(N2CCN(C(=O)[C@@H]3C[C@@H](O)CN3)CC2(C)C)cc1` | -1.064% | 4.874% | -14.04% | -2.971% | 8.115% |
| 32 | `CN1CC2(CCN(C(=O)c3coc4c3C(=O)CCC4)C2)OC1=O` (centres undefined) | 9.091% | 1.548% | -37.22% | 5.001% | 5.731% |
| 33 | `O=c1oc(-c2ccccc2)nn1CN1CCC(N2CCCCC2)CC1` | 11.31% | 3.436% | 3.009% | -1.029% | -1.202% |
| 34 | `COc1ccc(CC(C)(O)CNC(=O)Cc2ccc(F)cc2)cc1` (centres undefined) | 3.333% | -2.058% | 0.5536% | 6.871% | -3.099% |
| 35 | `CC(=O)NCCC(=O)NCc1cccnc1-n1cnc2ccccc21` | -2.479% | 3.258% | -8.189% | 1.714% | -6.311% |
| 36 | `CCN1CCC(CNC(=O)C2(c3cccc(C)c3)CC2)C1` (centres undefined) | -1.88% | -3.606% | -17.57% | 4.113% | -2.418% |
| 37 | `c1ccc2c(c1)CN(c1ncnc3sc4c(c13)CCNC4)CCO2` | 21.47% | 4.728% | 62.99% | 3.579% | 7.089% |
| 38 | `Cc1cnc(N2CCC3(CCCN3C(=O)c3ccco3)CC2)nc1` | 11.65% | -4.942% | -19.61% | 5.151% | - |
| 39 | `c1ccc(OC[C@]23COC[C@H]2CN(Cc2ccoc2)C3)nc1` | 0.5405% | -3.253% | -15.61% | 1.875% | - |
| 40 | `COCC1CC2(CCN(C(N)=O)CC2)CN1Cc1csc(C)n1` (centres undefined) | 4.813% | -1.199% | -9.122% | 3.042% | - |
| 41 | `Cn1ccnc1CNC(=O)Nc1ccc(OC2CCC2)c(F)c1` | 2.128% | -32.05% | -4.962% | -16.73% | -45.55% |
| 42 | `CN(CCN1CCOCC1)C(=O)CCCc1ccccc1` | 2.174% | -0.9534% | -40.13% | 0.3134% | 2.464% |
| 43 | `CN(CC(F)(F)F)C(=O)CNC(=O)N1CCCC(C(F)(F)F)C1` (centres undefined) | 11.88% | 1.584% | -16.18% | 4.303% | -2.282% |
| 44 | `O=C(c1cccnc1-c1ccoc1)N1C[C@H]2CC[C@@H]1C2` | 7.447% | -2.527% | -16.06% | 4.211% | - |
| 45 | `CCC(C#N)NC(=O)CCCOc1cccc(C(C)=O)c1` (centres undefined) | 4.217% | 1.722% | -16.15% | 1.835% | -1.213% |
| 46 | `CN(Cc1ccco1)Cc1cncc2c1CCN(Cc1ccoc1)C2.Cl.Cl.Cl` | - | - | - | - | 12.26% |
| 47 | `CCn1ccnc1CN(C)Cc1nc(Cc2ccccc2Cl)no1` | 8.374% | -4.479% | - | 1.889% | 2.735% |
| 48 | `CN1CC2(CCN(C(=O)c3ccc4c(=O)n(C)cnc4c3)C2)OC1=O` (centres undefined) | 0% | 2.021% | 28.87% | 6.696% | 0.2758% |
| 49 | `CC(O)CN1CCC(CN(C)CCC(=O)NC2CCCCC2)CC1` (centres undefined) | 2.762% | 6.502% | -1.53% | -5.035% | 0.5508% |

For reference, 6 entries once more:

- COc1ccc(N2CCN(C(=O)[C@@H]3C[C@@H](O)CN3)CC2(C)C)cc1 : TcHisRS: -1.064%; MtTrpRS: 4.874%; Pks13 thioesterase: -14.04%; PfKRS1: -2.971%; Toxoplasma: 8.115%
- Cl.c1cc(OCc2ccc3c(c2)OCCO3)ccc1CNC1CC1 : Toxoplasma: 0.9553%
- Cc1cc(C)cc(OCC(=O)N2CCCN(CC(N)=O)CC2)c1 : TcHisRS: 3.659%; MtTrpRS: -6.39%; Pks13 thioesterase: 9.1%; PfKRS1: -0.4119%; Toxoplasma: -14.07%
- CN1CC2(CCN(C(=O)c3ccc4c(=O)n(C)cnc4c3)C2)OC1=O (centres undefined) : TcHisRS: 0%; MtTrpRS: 2.021%; Pks13 thioesterase: 28.87%; PfKRS1: 6.696%; Toxoplasma: 0.2758%
- O=C(O)C(F)(F)F.O=C(O)C(F)(F)F.[H][C@@]12OCCC[C@]1([H])N(Cc1cc(C)c(C)o1)C[C@@H]2N1CCOCC1 : Toxoplasma: 14.08%
- Cc1cnc(N2CCC3(CCCN3C(=O)c3ccco3)CC2)nc1 : TcHisRS: 11.65%; MtTrpRS: -4.942%; Pks13 thioesterase: -19.61%; PfKRS1: 5.151%

The values are deposited in ChEMBL (CHEMBL3988442, “University of Dundee, Small-Polar-MMV Screening Library” (2021)).